Our source for the IC50 values is US20220175688A1, “POLYMERIC NANOPARTICLES” (Hillstream BioPharma, Inc., priority 2015, published 2022).

This test deals with MCF-7. In words: IC50 in wild-type MCF-7 cells (Example 9). Format: cell-based. Particulars: Homo sapiens, MCF7. The source says: Accordingly, MCF-7 cells resistant to PTX were generated by exposure to increasing PTX concentrations (Table 9).

`CC(=O)O[C@H]1C(=O)[C@@]2(C)[C@H]([C@H](OC(=O)c3ccccc3)[C@]3(O)C[C@H](OC(=O)[C@H](O)[C@@H](NC(=O)c4ccccc4)c4ccccc4)C(C)=C1C3(C)C)[C@]1(OC(C)=O)CO[C@@H]1C[C@@H]2O` [PTX, Paclitaxel] showed an IC50 of 0.027 µM.

A word on the IC50: it is the concentration that gives 50% inhibition. A lower IC50 goes with inhibition by little substance.
